These results are taken from patent publication US20250283871A1, “COMPOSITIONS AND METHODS FOR MODULATING THE INTERACTION BETWEEN SS18-SSX FUSION ONCOPROTEIN AND NUCLEOSOMES” (Dana-Farber Cancer Institute, Inc., priority 2020, published 2025).

The subject of this data set is BAF complex subunits and histone proteins. The data set can be described thus: Mass spectrometry proteomics of purified HA-SS18 WT and HA-SS18-SSX1 complexes (Tables 5A-5E). Details: species or system human.
Where [1] appears, read: HA-SS18SSX1_CHR_peptides: proteins found in HA-SS18-SSX1 BAF complex purification from solubilized chromatin (CHR), HEK-293T.
[2] abbreviates: HA-SS18SSX1_NE_peptides: protein co-purified with HA-SS18-SSX1 BAF complexes from soluble nuclear extract (NE), HEK-293T cells.
Where [3] appears, read: HA-SS18WT_CHR_peptides: protein identified in HA-SS18 WT BAF complex purification from nuclease-treated solubilized chromatin (CHR), HEK-293T.
The mark [4] stands for this setting: HA-SS18WT_NE_peptides: proteins co-purified with HA-SS18 WT from nuclear extract (NE), HEK-293T.
The mark [5] stands for this setting: HA-SS18SSX1_CHR_peptides: protein identified in the HA-SS18-SSX1 purification from solubilized chromatin (CHR), HEK-293T.
The mark [6] stands for this setting: HA-SS18WT_CHR_peptides: HA-SS18 WT purification from nuclease-treated solubilized chromatin (CHR), HEK-293T, label = protein identified.

B1: NIPSNAP2 (protein, UniProt O75323 24-286, looked up)
Protein NipSnap homolog 2: CSLLPRLRTWTSSSNRSREDSWLKSLFVRKVDPRKDAHSNLLAKKETSNLYKLQFHNVKPECLEAYNKICQEVLPKIHEDKHYPCTLVGTWNTWYGEQDQAVHLWRYEGGYPALTEVMNKLRENKEFLEFRKARSDMLLSRKNQLLLEFSFWNEPVPRSGPNIYELRSYQLRPGTMIEWGNYWARAIRFRQDGNEAVGGFFSQIGQLYMVHHLWAYRDLQTREDIRNAAWHKHGWEELVYYTVPLIQEMESRIMIPLKTSPLQ
For B1, under setting [1], the “Total (peptides)” value is recorded as 1 and the “Unique (peptides)” value worked out at 1. Under setting [2], the “Total (peptides)” value is 2 and the “Unique (peptides)” value is 2. Further, under setting [3], the “Total (total peptides)” value is 2 and the “Unique (unique peptides)” value was determined as 1. Under setting [4], the “Total (peptides)” value is reported as 1 and the “Unique (peptides)” value worked out at 1.

B2: NRM (protein, UniProt Q8IXM6 1-262, looked up)
Nurim: MAPALLLIPAALASFILAFGTGVEFVRFTSLRPLLGGIPESGGPDARQGWLAALQDRSILAPLAWDLGLLLLFVGQHSLMAAERVKAWTSRYFGVLQRSLYVACTALALQLVMRYWEPIPKGPVLWEARAEPWATWVPLLCFVLHVISWLLIFSILLVFDYAELMGLKQVYYHVLGLGEPLALKSPRALRLFSHLRHPVCVELLTVLWVVPTLGTDRLLLAFLLTLYLGLAHGLDQQDLRYLRAQLQRKLHLLSRPQDGEAE
Take B2: under setting [1], the “Total (peptides)” value is listed as 1 and the “Unique (peptides)” value stood at 1. Also, under setting [3], the “Total (total peptides)” value was 1 and the “Unique (unique peptides)” value was 1.

B3: RSF1 (protein, UniProt Q96T23 1-1441, looked up)
Remodeling and spacing factor …: MATAAAAAAVMAPPGCPGSCPNFAVVCSFLERYGPLLDLPELPFPELERVLQAPPPDVGNGEVPKELVELHLKLMRKIGKSVTADRWEKYLIKICQEFNSTWAWEMEKKGYLEMSVECKLALLKYLCECQFDDNLKFKNIINEEDADTMRLQPIGRDKDGLMYWYQLDQDHNVRMYIEEQDDQDGSSWKCIVRNRNELAETLALLKAQIDPVLLKNSSQQDNSSRESPSLEDEETKKEEETPKQEEQKESEKMKSEEQPMDLENRSTANVLEETTVKKEKEDEKELVKLPVIVKLEKPLPENEEKKIIKEESDSFKENVKPIKVEVKECRADPKDTKSSMEKPVAQEPERIEFGGNIKSSHEITEKSTEETEKLKNDQQAKIPLKKREIKLSDDFDSPVKGPLCKSVTPTKEFLKDEIKQEEETCKRISTITALGHEGKQLVNGEVSDERVAPNFKTEPIETKFYETKEESYSPSKDRNIITEGNGTESLNSVITSMKTGELEKETAPLRKDADSSISVLEIHSQKAQIEEPDPPEMETSLDSSEMAKDLSSKTALSSTESCTMKGEEKSPKTKKDKRPPILECLEKLEKSKKTFLDKDAQRLSPIPEEVPKSTLESEKPGSPEAAETSPPSNIIDHCEKLASEKEVVECQSTSTVGGQSVKKVDLETLKEDSEFTKVEMDNLDNAQTSGIEEPSETKGSMQKSKFKYKLVPEEETTASENTEITSERQKEGIKLTIRISSRKKKPDSPPKVLEPENKQEKTEKEEEKTNVGRTLRRSPRISRPTAKVAEIRDQKADKKRGEGEDEVEEESTALQKTDKKEILKKSEKDTNSKVSKVKPKGKVRWTGSRTRGRWKYSSNDESEGSGSEKSSAASEEEEEKESEEAILADDDEPCKKCGLPNHPELILLCDSCDSGYHTACLRPPLMIIPDGEWFCPPCQHKLLCEKLEEQLQDLDVALKKKERAERRKERLVYVGISIENIIPPQEPDFSEDQEEKKKDSKKSKANLLERRSTRTRKCISYRFDEFDEAIDEAIEDDIKEADGGGVGRGKDISTITGHRGKDISTILDEERKENKRPQRAAAARRKKRRRLNDLDSDSNLDEEESEDEFKISDGSQDEFVVSDENPDESEEDPPSNDDSDTDFCSRRLRRHPSRPMRQSRRLRRKTPKKKYSDDDEEEESEENSRDSESDFSDDFSDDFVETRRRRSRRNQKRQINYKEDSESDGSQKSLRRGKEIRRVHKRRLSSSESEESYLSKNSEDDELAKESKRSVRKRGRSTDEYSEADEEEEEEEGKPSRKRLHRIETDEEESCDNAHGDANQPARDSQPRVLPSEQESTKKPYRIESDEEEDFENVGKVGSPLDYSLVDLPSTNGQSPGKAIENLIGKPTEKSQTPKDNSTASASLASNGTSGGQEAGAPEEEEDELLRVTDLVDYVCNSEQL
For the molecule B3, under setting [5], the “Total (total peptides)” value was found to be 20 and the “Unique (unique peptides)” value stood at 18. Besides, under setting [6], the “Total (peptides)” value came out at 9 and the “Unique (peptides)” value is recorded as 7.
